Data source: PubChem BioAssay AID504744 (Drosophila RNAi Screening Center, 2011)
The deposit covers about 23,000 reagents; below is an unselected part of those that have a named target and a result. Of all reagents, 98 (0.43%) got an active call. 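Only hit calls are given; the phospho-dAkt signals, z-scores and hit direction were not deposited.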 Names joined by + are all predicted targets of the reagent.

Assay: 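Find genes whose loss alters insulin-driven dAkt phosphorylation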 (primary screen)
Cells: Drosophila Kc167 cells
Reagents: long dsRNA against Drosophila genes, 250 ng dsRNA per well of a 384-well plate
Timing: 3 days of knock-down, then overnight serum-free starvation before stimulation
Challenge: bovine insulin at 387 nM for 10 minutes after 12 h without serum
Detection: 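Per-well phospho-dAkt level from an in-cell fluorescent antibody stain, divided by a DNA-dye signal; log2 residuals turned into z-scores that take cell number into account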
Active means: 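Hit in the insulin screen when the two-replicate mean z-score is more extreme than plus or minus 2.5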

no.	target gene	dsRNA	activity call
1	CG8072	DRSC10960	inactive
2	Mst57Db (Male-specific RNA 57Db)	DRSC21551	inactive
3	Or59c (Odorant receptor 59c)	DRSC04633	inactive
4	qua (quail)	DRSC03598	inactive
5	Obp18a (Odorant-binding protein 18a)	DRSC19736	inactive
6	thoc7	DRSC08512	inactive
7	CG3726	DRSC18320	inactive
8	aust (australin)	DRSC02558	inactive
9	Ced-12	DRSC02840	inactive
10	CG15169	DRSC02470	inactive
11	CG17169	DRSC20905	inactive
12	eIF3f1 (eukaryotic translation initiation factor 3 subunit f1)	DRSC12328	inactive
13	Sfp26Ad (Seminal fluid protein 26Ad)	DRSC00904	inactive
14	CG30324	DRSC22655	inactive
15	CG5056	DRSC02808	inactive
16	CG42552 (retired record)	DRSC11512	inactive
17	CG14573	DRSC11734	inactive
18	Osi9 (Osiris 9)	DRSC12278	inactive
19	CG16713	DRSC00477	inactive
20	bft (retired record)	DRSC21354	inactive
21	Antdh (Antennal dehydrogenase)	DRSC20307	inactive
22	eIF4B (eukaryotic translation initiation factor 4B)	DRSC20983	inactive
23	Obp50c + Obp50b	DRSC05482	inactive
24	CG14333 (retired record)	DRSC14812	inactive
25	CG14333 (retired record)	DRSC15769	inactive
26	Syx5 (Syntaxin 5)	DRSC03432	inactive
27	CG3823	DRSC18325	inactive
28	frj (farjavit)	DRSC03250	inactive
29	ind (intermediate neuroblasts defective)	DRSC11355	inactive
30	AGO3 (Argonaute 3)	DRSC21386	inactive
31	CG9876	DRSC04586	inactive
32	CG9522	DRSC20197	inactive
33	CG6040	DRSC15954	inactive
34	AIMP2 (aaRS-interacting multifunctional protein 2)	DRSC09877	inactive
35	CG12065	DRSC17798	inactive
36	CG12065	DRSC17799	inactive
37	SP1173	DRSC11277	inactive
38	CG1492	DRSC19605	inactive
39	CG33080	DRSC18080	inactive
40	CG33080	DRSC18081	inactive
41	CG33080	DRSC18285	inactive
42	CG13760	DRSC18617	inactive
43	ksr (kinase suppressor of ras)	DRSC12379	inactive
44	CG13585	DRSC04221	inactive
45	sli (slit)	DRSC07684	inactive
46	CG32686	DRSC17645	inactive
47	Obp19d (Odorant-binding protein 19d)	DRSC20569	inactive
48	CG3527	DRSC18307	inactive
49	Nadk1b (NAD kinase 1b)	DRSC05432	inactive
50	Nadk1b (NAD kinase 1b)	DRSC06964	inactive
51	Nadk1b (NAD kinase 1b)	DRSC06965	inactive
52	Ten-m (Tenascin major)	DRSC11664	inactive
53	Ten-m (Tenascin major)	DRSC11882	inactive
54	Lon (Lon protease)	DRSC11049	inactive
55	CG18540	DRSC06767	inactive
56	atlas	DRSC04183	inactive
57	Dis3l2 (Dis3 like 3'-5' exoribonuclease 2)	DRSC08496	inactive
58	Pld3 (Phospholipase D family member 3)	DRSC03167	inactive
59	CG14860	DRSC14983	inactive
60	CG14881	DRSC15005	inactive
61	Drsl4 (Drosomycin-like 4)	DRSC08034	inactive
62	Nup75 (Nucleoporin 75kD)	DRSC06947	inactive
63	CG17919	DRSC12571	inactive
64	CG4116	DRSC18348	inactive
65	Sod2 (Superoxide dismutase 2 (Mn))	DRSC07554	inactive
66	Vm26Ac (Vitelline membrane 26Aac)	DRSC02329	inactive
67	Marf (Mitochondrial assembly regulatory factor)	DRSC18329	inactive
68	sub (subito)	DRSC06125	inactive
69	Srg2 + CG42826	DRSC10681	inactive
70	Srg2 + CG42826	DRSC10682	inactive
71	CG5381	DRSC02852	inactive
72	Sur-8	DRSC15794	inactive
73	Lamtor5 (Late endosomal/lysosomal adaptor, MAPK and MTOR activator 5)	DRSC18491	inactive
74	Cat (Catalase)	DRSC11110	inactive
75	CG42331	DRSC14633	inactive
76	CG42331	DRSC16126	inactive
77	ck (crinkled)	DRSC03509	inactive
78	LeuRS (Leucyl-tRNA synthetase)	DRSC00581	inactive
79	CG7968	DRSC01903	inactive
80	CG11404	DRSC11656	inactive
81	fiz (fezzik)	DRSC20188	inactive
82	Dbp45A (DEAD box protein 45A)	DRSC07395	active
83	CG15484	DRSC02494	inactive
84	CG15484	DRSC22836	inactive
85	CG43999	DRSC14605	inactive
86	CG15247	DRSC17976	inactive
87	Vti1a (Vesicle transport through interaction with t-SNAREs 1a)	DRSC08563	inactive
88	CG15199	DRSC19646	inactive
89	CG6118	DRSC15968	inactive
90	CG32050 (retired record)	DRSC10173	inactive
91	RluA-1 (RluA pseudouridine synthase 1)	DRSC02240	inactive
92	RluA-1 (RluA pseudouridine synthase 1)	DRSC03060	inactive
93	CG6073	DRSC15962	inactive
94	CG6073	DRSC22742	inactive
95	Ipk2 (Inositol phosphate kinase 2)	DRSC00357	inactive
96	rig (rigor mortis)	DRSC06053	inactive
97	rig (rigor mortis)	DRSC06400	inactive
98	CG8671	DRSC03102	inactive
99	CG8671	DRSC03103	inactive
100	CR33318 (pseudo)	DRSC22949	inactive
101	Khc-73 (Kinesin heavy chain 73)	DRSC07449	inactive
102	CG14182	DRSC10181	inactive
103	CG7011	DRSC09347	inactive
104	p53	DRSC17024	inactive
105	CG10102 (retired record)	DRSC05963	inactive
106	CG7747	DRSC07038	inactive
107	Secp43 (tRNA Selenocysteine associated protein)	DRSC00454	inactive
108	CG8349	DRSC03083	inactive
109	CG6845	DRSC08576	inactive
110	Argp (Arginine phosphatase)	DRSC16510	inactive
111	Sec15 (Secretory 15)	DRSC16179	inactive
112	CG15333	DRSC18016	inactive
113	CG15333	DRSC18153	inactive
114	RpS11 (Ribosomal protein S11)	DRSC07289	inactive
115	RpS11 (Ribosomal protein S11)	DRSC22700	inactive
116	Nufip	DRSC10397	inactive
117	nrv3 (nervana 3)	DRSC03097	inactive
118	CG12814	DRSC14552	inactive
119	CG12814	DRSC14553	inactive
120	CG12362	DRSC09884	inactive
121	snz (snazarus)	DRSC17969	inactive
122	Opa1 (Optic atrophy 1)	DRSC07191	inactive
123	exp (expansion)	DRSC06313	inactive
124	fd59A (forkhead domain 59A)	DRSC04685	inactive
125	CG42523	DRSC00251	inactive
126	CG14947	DRSC02429	inactive
127	Loxl2 (Lysyl oxidase-like 2)	DRSC04469	inactive
128	Fer3HCH (Ferritin 3 heavy chain homologue)	DRSC19892	inactive
129	Cog2 (Component of oligomeric golgi complex 2)	DRSC16987	inactive
130	Tig (Tiggrin)	DRSC03456	inactive
131	CG32756	DRSC22505	inactive
132	RhoGEF2 (Rho guanine nucleotide exchange factor 2)	DRSC07531	inactive
133	CG13731	DRSC10059	inactive
134	spi (spitz)	DRSC03618	inactive
135	CR31700 (pseudo)	DRSC03682	inactive
136	RpS7 (Ribosomal protein S7)	DRSC15394	inactive
137	CG14177 (retired record)	DRSC10176	inactive
138	Ddc (Dopa decarboxylase)	DRSC03314	inactive
139	Cpr65Ea (Cuticular protein 65Ea)	DRSC11027	inactive
140	CG2794	DRSC00534	inactive
141	sbm (sobremesa)	DRSC20185	inactive
142	CG5532	DRSC04509	inactive
143	CG15611	DRSC06563	inactive
144	CG15611	DRSC06564	inactive
145	CG7208	DRSC16212	inactive
146	Gr64b (Gustatory receptor 64b)	DRSC08444	inactive
147	CG4676	DRSC06879	inactive
148	Smr (Smrter)	DRSC19495	inactive
149	Smr (Smrter)	DRSC20288	inactive
150	CG7781	DRSC03068	inactive
151	CG32269 + CG32270	DRSC08195	inactive
152	CG13096	DRSC02198	inactive
153	CG9961	DRSC00738	inactive
154	CG10802	DRSC17762	inactive
155	E(spl)mdelta-HLH (Enhancer of split mdelta, helix-loop-helix)	DRSC16698	inactive
156	GATAe	DRSC14223	inactive
157	CG6409	DRSC10630	inactive
158	CG6409	DRSC22330	inactive
159	Su(H) (Suppressor of Hairless)	DRSC03445	inactive
160	Coq4 + Gorab + frc	DRSC10383	inactive
161	Obp56d (Odorant-binding protein 56d)	DRSC06064	inactive
162	TyrRS-m (Tyrosyl-tRNA synthetase, mitochondrial)	DRSC04286	inactive
163	CG45263	DRSC12682	inactive
164	CG45263	DRSC14360	inactive
165	CG45263	DRSC14361	inactive
166	CG45263	DRSC14363	inactive
167	TwdlY (TweedleY)	DRSC19153	inactive
168	CG8248	DRSC07124	inactive
169	CG11085	DRSC19374	inactive
170	CG11085	DRSC22832	inactive
171	Socs36E (Suppressor of cytokine signaling at 36E)	DRSC02455	inactive
172	Sbf (SET domain binding factor)	DRSC16852	inactive
173	CG16727	DRSC15139	inactive
174	CG31038	DRSC15051	inactive
175	CG31038	DRSC16326	inactive
176	CG31038	DRSC16327	inactive
177	Cbs (Cystathionine beta-synthase)	DRSC20553	inactive
178	msn (misshapen)	DRSC07990	inactive
179	msn (misshapen)	DRSC08498	inactive
180	Brms1 (BRMS1 transcriptional repressor)	DRSC19896	inactive
181	CG18808	DRSC08539	inactive
182	CG7806	DRSC03071	inactive
183	CG13887	DRSC08357	inactive
184	Ssadh (Succinic semialdehyde dehydrogenase)	DRSC15621	inactive
185	CG1635	DRSC15131	inactive
186	AdamTS-A (ADAM metallopeptidase with thrombospondin type 1 motif A)	DRSC14992	inactive
187	AdamTS-A (ADAM metallopeptidase with thrombospondin type 1 motif A)	DRSC15966	inactive
188	Sk2 (Sphingosine kinase 2)	DRSC08556	inactive
189	CG6689	DRSC16095	inactive
190	CG15601	DRSC19670	inactive
191	Calr (Calreticulin)	DRSC16614	inactive
192	CG8661	DRSC20115	inactive
193	CG11367	DRSC22434	inactive
194	CG9168	DRSC08633	inactive
195	GNBP-like3 (GNBP-like 3)	DRSC06385	inactive
196	Tapdelta (Translocon-associated protein delta)	DRSC05946	inactive
197	CG13218	DRSC06340	inactive
198	CG5810	DRSC15880	inactive
199	CG5810	DRSC21921	inactive
200	tea (telomere ends associated)	DRSC06110	inactive
201	tea (telomere ends associated)	DRSC06236	inactive

In a second layout: 15 of the entries above.
target gene	dsRNA	activity call
CG9522	DRSC20197	inactive
CG6040	DRSC15954	inactive
AIMP2 (aaRS-interacting multifunctional protein 2)	DRSC09877	inactive
CG12065	DRSC17798	inactive
CG12065	DRSC17799	inactive
SP1173	DRSC11277	inactive
CG1492	DRSC19605	inactive
CG33080	DRSC18080	inactive
CG33080	DRSC18081	inactive
CG33080	DRSC18285	inactive
CG13760	DRSC18617	inactive
ksr (kinase suppressor of ras)	DRSC12379	inactive
CG13585	DRSC04221	inactive
sli (slit)	DRSC07684	inactive
CG32686	DRSC17645	inactive
